# Reference: PMC3513293
# These are yes or no findings as the source states them, for the method shown. Some results given as binding are weak or reduced against the parent protein; the word gives no strength.
# Molecular target: T1, p47 (UniProt O35987)
# T1 sequence: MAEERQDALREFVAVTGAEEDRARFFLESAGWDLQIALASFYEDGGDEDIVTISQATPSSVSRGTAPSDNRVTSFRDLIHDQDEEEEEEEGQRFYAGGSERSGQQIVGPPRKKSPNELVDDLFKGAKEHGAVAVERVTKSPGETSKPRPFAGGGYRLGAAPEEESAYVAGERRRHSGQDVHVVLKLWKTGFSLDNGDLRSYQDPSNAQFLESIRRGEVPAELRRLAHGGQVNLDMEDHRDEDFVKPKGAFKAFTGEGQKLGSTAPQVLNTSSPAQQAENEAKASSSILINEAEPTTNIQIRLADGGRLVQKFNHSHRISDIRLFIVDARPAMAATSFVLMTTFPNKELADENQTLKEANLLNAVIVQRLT
# Experiment: SPR; competition; p47 amine-coupled to CM5 (2000 RU); p97/VCP or p97-N-D1 captured to 500 RU; UN coinjected during dissociation at several concentrations, without or with ATP or ATPγS; 20 μl/min, 25°C, PBS; regeneration with 50 mM NaOH; both purified
substance,measurement,value
"p97/Valosin-containing protein (VCP), full length (from UniProt P55072 1-806) (enzyme)",binding,binds
